Results deposited as PubChem BioAssay AID504791 (Drosophila RNAi Screening Center, 2011).
In all, the deposit lists about 23,000 reagents; below is an unselected part of those that have a named target and a result. In the full data, 199 (0.86%) got an active call. 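Plate-scaled ratios behind the calls are not deposited; printed light signals are raw; many rows marked increased or decreased are still called inactive.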 A plus sign joins genes that one reagent is predicted to hit.

Aim: 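Genes whose knock-down strengthens or weakens small-RNA reporter silencing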 (primary screen)
Cell system: Drosophila S2-derived reporter cells
Knock-down reagent: long dsRNA against Drosophila genes, about 150-250 ng dsRNA per well (siRNA assay); about 80-120 ng (miRNA assay)
Timing: about 5 days (siRNA assay); about 4 days (miRNA assay)
Treatment: copper sulfate induction of reporters: 25 µM (siRNA assay); 200 mM stated (miRNA assay), 1-2 days before reading
Measured: 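Dual luciferase assay: Renilla to firefly signal ratio in each well, scaled to the mean ratio of its plate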
Reading the numbers: siRNA reporter hit score: higher = 3 marks a strong hit with raised ratio; -3 a strong hit with lowered ratio
Call rule: 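First-pass picks had plate-scaled ratios over 1.5 for the siRNA assay, over 1.6 for the miRNA assay, or under 0.6; two distinct dsRNAs had to score alike on retest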

no.	predicted target	dsRNA	siRNA reporter hit score	stable siRNA reporter change	stable assay Renilla, run 1 (luminescence)	stable assay firefly, run 1 (luminescence)	Outcome
1	Drs (Drosomycin)	DRSC08657			5896	3.26e5	inactive
2	CG42512 + CG32573	DRSC19532			6226	4.75e5	inactive
3	CG42512 + CG32573	DRSC19906			7244	5.05e5	inactive
4	CG42512 + CG32573	DRSC22782			5000	4.23e5	inactive
5	ver (verrocchio)	DRSC10125			6291	4.51e5	inactive
6	Vm26Ab (Vitelline membrane 26Ab)	DRSC03473		reporter ratio lowered past the hit cutoff	4032	4.06e5	inactive
7	CG33998	DRSC05747			6655	3.47e5	inactive
8	mRpS31 (mitochondrial ribosomal protein S31)	DRSC10556		reporter ratio lowered past the hit cutoff	5140	4.22e5	inactive
9	CG6550	DRSC07001			12694	6.66e5	inactive
10	CG16717	DRSC10221			6578	4.90e5	inactive
11	CG10336	DRSC02037			7534	1.65e6	inactive
12	Sln (Silnoon)	DRSC07133			5950	3.32e5	inactive
13	Nipsnap	DRSC20169			7486	3.70e5	inactive
14	CG34107	DRSC14554			5964	3.42e5	inactive
15	Art7 (Arginine methyltransferase 7)	DRSC04588			6388	3.77e5	inactive
16	Fkbp14 (FK506-binding protein 14)	DRSC04615			20006	7.85e5	inactive
17	CycK (Cyclin K)	DRSC03714	-3		8344	5.90e5	inactive
18	Ir60b (Ionotropic receptor 60b)	DRSC04217			6510	3.02e5	inactive
19	CG13970	DRSC02311			6559	3.26e5	inactive
20	CG32855	DRSC13131			5790	5.30e5	inactive
21	CG13921	DRSC08390			2820	3.09e5	inactive
22	ninaG	DRSC16102			7415	4.51e5	inactive
23	CG13445	DRSC09992			8761	5.51e5	inactive
24	nec (necrotic)	DRSC06769			6810	3.50e5	inactive
25	Gbs-76A (Glycogen binding subunit 76A)	DRSC11081			8695	4.44e5	inactive
26	CG31810	DRSC01560			5059	2.65e5	inactive
27	CG6511	DRSC10656			6315	3.63e5	inactive
28	CG31710	DRSC01089			4731	3.81e5	inactive
29	CG31710	DRSC22863			5163	5.22e5	inactive
30	RnrL (Ribonucleoside diphosphate reductase large subunit)	DRSC03413			56797	4.83e5	inactive
31	uri (unconventional prefoldin RPB5 interactor)	DRSC04111			34725	1.23e6	inactive
32	CG1409	DRSC17910			6203	3.75e5	inactive
33	boi	DRSC18425			6320	3.54e5	inactive
34	boi	DRSC18598			7755	3.94e5	inactive
35	CG13930	DRSC08399			6222	3.91e5	inactive
36	RhoGAP93B (Rho GTPase activating protein at 93B)	DRSC15488			7822	4.19e5	inactive
37	scramb1 (scramblase 1)	DRSC09724			6380	4.41e5	inactive
38	scramb1 (scramblase 1)	DRSC10667			6615	4.37e5	inactive
39	scramb1 (scramblase 1)	DRSC10668			6835	4.55e5	inactive
40	CG33464 (retired record)	DRSC22936			4676	4.40e5	inactive
41	CG6707	DRSC10697			6692	3.65e5	inactive
42	CG8229 + CG33199	DRSC05134			5016	5.28e5	inactive
43	Ald2 (Aldolase 2)	DRSC15799			7411	4.18e5	inactive
44	mthl13 (methuselah-like 13)	DRSC05238			4804	3.62e5	inactive
45	Usp32 (Ubiquitin specific protease 32)	DRSC10979			6610	3.79e5	inactive
46	CG34282	DRSC16298			7808	4.39e5	inactive
47	Syx17 (Syntaxin 17)	DRSC08591			8098	4.82e5	inactive
48	Duox (Dual oxidase)	DRSC00571			7139	4.38e5	inactive
49	CrzR (Corazonin receptor)	DRSC09781			6411	3.87e5	inactive
50	CrzR (Corazonin receptor)	DRSC09782			6498	4.12e5	inactive
51	CG34348	DRSC19425			5892	4.80e5	inactive
52	CG34348	DRSC19644			6726	4.67e5	inactive
53	CG10384	DRSC03933			5904	3.88e5	inactive
54	CG10384	DRSC04067			5508	3.44e5	inactive
55	Hip1 (Huntingtin interacting protein 1)	DRSC09812			7606	3.57e5	inactive
56	CG4854	DRSC15663			7492	4.46e5	inactive
57	Mmp1 (Matrix metalloproteinase 1)	DRSC04493			6152	3.10e5	inactive
